Assay results as given in the supplement of paper PMC10849652.
Some of the results follow.

Chains of the proteins cited; added tags and fusions are not shown. Lines headed by an entry give the natural chain unless they say otherwise; changes in a name come on top.
UniProt Q8N1G1: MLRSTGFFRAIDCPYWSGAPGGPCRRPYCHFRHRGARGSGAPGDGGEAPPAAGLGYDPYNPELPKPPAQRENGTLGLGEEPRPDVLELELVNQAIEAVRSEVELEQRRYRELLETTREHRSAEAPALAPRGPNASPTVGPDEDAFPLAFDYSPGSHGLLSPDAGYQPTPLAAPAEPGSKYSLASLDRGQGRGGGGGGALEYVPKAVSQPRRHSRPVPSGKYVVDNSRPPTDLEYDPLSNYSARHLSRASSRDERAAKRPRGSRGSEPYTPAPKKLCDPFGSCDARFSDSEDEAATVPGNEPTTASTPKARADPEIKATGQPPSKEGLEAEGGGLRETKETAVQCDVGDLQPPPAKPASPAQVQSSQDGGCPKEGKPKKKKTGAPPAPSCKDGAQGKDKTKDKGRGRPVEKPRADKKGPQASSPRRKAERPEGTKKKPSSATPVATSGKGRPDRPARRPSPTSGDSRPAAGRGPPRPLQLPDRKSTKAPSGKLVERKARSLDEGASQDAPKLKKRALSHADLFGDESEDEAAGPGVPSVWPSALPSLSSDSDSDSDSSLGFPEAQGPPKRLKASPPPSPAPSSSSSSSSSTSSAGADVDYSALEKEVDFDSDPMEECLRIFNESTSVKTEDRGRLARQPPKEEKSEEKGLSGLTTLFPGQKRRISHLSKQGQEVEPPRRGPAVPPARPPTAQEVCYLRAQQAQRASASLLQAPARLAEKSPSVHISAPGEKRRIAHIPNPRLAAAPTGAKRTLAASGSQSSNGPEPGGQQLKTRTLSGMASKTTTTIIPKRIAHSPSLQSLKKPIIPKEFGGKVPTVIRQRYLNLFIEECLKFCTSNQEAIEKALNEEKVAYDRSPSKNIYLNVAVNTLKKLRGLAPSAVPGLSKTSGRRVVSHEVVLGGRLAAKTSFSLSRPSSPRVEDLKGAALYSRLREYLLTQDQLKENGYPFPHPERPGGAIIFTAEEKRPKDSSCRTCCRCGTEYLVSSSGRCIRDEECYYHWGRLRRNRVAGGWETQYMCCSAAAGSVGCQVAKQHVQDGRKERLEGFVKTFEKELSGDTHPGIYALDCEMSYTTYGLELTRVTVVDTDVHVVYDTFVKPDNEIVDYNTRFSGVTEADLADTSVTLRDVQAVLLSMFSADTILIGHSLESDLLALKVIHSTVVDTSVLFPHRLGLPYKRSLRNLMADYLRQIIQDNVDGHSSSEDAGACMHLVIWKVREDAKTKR
UniProt Q6NUM9: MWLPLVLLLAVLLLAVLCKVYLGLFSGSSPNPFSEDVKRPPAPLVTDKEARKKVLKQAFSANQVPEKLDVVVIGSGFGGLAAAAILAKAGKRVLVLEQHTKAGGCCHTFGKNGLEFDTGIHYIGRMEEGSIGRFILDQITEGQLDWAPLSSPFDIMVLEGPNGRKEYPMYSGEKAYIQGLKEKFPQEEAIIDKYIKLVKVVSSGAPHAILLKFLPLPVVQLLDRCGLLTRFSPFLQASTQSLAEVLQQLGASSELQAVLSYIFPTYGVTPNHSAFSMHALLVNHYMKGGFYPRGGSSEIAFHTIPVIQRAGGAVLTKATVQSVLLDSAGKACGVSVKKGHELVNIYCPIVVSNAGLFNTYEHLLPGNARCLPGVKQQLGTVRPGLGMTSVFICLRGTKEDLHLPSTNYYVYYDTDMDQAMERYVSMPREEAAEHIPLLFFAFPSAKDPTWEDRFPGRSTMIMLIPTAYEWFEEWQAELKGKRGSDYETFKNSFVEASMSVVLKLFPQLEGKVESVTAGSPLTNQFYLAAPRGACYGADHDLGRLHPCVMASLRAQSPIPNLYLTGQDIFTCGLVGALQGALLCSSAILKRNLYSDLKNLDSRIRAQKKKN
UniProt Q08999: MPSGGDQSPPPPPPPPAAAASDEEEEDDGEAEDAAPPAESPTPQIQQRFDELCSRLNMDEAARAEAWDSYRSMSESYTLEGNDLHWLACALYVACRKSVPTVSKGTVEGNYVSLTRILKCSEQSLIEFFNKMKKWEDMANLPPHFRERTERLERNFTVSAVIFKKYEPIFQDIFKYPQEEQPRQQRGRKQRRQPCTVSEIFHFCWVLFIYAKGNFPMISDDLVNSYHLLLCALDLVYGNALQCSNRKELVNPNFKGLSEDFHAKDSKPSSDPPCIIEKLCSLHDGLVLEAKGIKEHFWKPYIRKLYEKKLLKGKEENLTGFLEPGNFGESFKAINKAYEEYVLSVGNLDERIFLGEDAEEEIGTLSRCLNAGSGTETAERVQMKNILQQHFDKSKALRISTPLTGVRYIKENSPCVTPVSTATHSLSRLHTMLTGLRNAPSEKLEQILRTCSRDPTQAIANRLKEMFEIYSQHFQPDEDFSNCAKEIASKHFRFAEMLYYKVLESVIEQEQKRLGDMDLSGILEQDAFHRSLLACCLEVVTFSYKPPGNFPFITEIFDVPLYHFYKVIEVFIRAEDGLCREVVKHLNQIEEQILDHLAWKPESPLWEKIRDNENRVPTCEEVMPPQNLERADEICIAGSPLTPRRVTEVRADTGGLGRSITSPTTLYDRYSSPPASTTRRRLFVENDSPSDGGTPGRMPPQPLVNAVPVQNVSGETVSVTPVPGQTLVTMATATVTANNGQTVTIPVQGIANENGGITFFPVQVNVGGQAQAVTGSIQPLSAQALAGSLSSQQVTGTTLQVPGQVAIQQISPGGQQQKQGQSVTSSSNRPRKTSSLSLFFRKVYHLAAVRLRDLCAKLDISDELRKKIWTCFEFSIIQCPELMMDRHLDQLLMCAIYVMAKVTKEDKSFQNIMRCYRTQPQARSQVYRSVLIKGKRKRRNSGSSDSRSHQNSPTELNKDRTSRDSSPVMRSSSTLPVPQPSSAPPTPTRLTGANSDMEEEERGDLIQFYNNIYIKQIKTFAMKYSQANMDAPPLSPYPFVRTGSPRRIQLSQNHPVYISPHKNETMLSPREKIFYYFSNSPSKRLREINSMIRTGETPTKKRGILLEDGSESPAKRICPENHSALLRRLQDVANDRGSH
UniProt O43566: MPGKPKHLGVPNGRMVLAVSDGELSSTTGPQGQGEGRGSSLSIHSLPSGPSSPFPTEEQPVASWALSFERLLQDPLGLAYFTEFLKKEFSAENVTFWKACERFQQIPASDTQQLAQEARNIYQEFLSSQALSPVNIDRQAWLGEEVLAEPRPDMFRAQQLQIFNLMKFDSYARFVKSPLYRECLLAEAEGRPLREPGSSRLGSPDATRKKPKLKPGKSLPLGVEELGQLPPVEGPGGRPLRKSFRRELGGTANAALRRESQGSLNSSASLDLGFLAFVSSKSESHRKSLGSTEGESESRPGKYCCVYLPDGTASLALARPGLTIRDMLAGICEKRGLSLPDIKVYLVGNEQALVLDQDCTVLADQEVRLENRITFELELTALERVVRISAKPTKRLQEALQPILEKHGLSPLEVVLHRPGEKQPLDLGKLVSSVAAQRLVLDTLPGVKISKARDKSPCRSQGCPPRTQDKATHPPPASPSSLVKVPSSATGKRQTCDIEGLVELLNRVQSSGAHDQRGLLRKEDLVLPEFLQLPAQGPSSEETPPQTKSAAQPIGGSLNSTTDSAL
UniProt O15211: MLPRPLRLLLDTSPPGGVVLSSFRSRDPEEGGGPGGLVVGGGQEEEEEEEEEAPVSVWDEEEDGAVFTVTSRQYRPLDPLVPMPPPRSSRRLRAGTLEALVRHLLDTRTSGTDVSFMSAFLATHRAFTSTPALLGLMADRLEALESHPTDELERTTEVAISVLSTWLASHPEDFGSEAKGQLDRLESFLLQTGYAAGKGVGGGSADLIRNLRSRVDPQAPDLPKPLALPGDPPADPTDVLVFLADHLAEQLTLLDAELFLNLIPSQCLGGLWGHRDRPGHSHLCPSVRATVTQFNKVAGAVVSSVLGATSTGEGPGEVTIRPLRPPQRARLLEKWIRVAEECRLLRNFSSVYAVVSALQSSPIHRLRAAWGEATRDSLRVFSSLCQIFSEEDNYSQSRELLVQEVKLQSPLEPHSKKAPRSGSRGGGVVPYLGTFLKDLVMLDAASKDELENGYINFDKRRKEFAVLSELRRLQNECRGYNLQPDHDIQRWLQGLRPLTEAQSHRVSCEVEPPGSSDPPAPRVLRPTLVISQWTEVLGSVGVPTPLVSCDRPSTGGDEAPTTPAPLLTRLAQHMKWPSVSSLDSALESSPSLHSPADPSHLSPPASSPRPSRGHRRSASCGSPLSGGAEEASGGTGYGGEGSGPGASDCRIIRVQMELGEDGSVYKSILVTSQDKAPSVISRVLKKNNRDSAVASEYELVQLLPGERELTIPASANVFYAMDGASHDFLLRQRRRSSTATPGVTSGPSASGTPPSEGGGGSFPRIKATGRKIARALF
UniProt Q8N0T1: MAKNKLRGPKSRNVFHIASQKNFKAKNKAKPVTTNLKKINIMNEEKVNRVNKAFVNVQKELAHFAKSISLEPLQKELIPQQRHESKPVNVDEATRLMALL
UniProt Q6NUK4: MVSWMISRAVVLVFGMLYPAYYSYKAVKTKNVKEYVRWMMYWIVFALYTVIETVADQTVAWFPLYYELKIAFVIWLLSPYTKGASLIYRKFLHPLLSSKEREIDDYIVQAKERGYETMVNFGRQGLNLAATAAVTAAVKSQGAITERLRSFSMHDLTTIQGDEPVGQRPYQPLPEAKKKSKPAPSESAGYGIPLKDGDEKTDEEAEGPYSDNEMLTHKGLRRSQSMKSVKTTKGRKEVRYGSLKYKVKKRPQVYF
UniProt Q8N0V3: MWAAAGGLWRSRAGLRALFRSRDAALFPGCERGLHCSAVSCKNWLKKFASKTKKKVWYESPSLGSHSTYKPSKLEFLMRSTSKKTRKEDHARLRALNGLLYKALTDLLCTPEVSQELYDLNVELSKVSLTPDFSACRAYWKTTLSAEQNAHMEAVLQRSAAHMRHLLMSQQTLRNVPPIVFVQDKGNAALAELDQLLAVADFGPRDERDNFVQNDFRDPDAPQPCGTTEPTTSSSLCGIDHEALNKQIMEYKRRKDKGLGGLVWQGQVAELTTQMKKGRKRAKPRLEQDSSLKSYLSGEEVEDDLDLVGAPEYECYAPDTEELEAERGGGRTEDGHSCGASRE
UniProt Q9H4X1: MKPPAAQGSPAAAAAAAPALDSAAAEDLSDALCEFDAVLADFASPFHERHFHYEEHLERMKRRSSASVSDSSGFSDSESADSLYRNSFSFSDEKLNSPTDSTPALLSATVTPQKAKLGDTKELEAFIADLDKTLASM
UniProt Q02161: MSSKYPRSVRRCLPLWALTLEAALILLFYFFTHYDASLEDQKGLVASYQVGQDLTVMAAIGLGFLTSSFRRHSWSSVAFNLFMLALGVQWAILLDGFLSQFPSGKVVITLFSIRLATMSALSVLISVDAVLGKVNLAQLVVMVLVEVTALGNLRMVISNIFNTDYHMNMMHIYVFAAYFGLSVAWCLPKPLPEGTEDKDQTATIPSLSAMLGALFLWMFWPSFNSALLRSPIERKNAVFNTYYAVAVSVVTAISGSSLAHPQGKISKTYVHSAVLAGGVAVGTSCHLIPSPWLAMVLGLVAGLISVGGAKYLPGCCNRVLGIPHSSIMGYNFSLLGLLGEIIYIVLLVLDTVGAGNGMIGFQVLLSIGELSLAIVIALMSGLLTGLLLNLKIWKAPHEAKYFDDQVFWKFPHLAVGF
UniProt P82980: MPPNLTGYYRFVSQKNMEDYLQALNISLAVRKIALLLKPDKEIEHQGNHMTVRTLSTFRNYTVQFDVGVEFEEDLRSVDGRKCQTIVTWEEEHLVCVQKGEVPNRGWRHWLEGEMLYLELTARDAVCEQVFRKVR
UniProt Q9H0Z9: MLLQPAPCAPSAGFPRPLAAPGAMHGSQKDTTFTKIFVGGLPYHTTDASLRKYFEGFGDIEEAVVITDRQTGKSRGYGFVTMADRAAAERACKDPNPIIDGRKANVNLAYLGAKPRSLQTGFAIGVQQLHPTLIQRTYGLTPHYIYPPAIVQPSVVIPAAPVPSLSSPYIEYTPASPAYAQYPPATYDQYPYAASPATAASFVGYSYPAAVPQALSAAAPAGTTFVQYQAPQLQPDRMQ
UniProt Q8NC44: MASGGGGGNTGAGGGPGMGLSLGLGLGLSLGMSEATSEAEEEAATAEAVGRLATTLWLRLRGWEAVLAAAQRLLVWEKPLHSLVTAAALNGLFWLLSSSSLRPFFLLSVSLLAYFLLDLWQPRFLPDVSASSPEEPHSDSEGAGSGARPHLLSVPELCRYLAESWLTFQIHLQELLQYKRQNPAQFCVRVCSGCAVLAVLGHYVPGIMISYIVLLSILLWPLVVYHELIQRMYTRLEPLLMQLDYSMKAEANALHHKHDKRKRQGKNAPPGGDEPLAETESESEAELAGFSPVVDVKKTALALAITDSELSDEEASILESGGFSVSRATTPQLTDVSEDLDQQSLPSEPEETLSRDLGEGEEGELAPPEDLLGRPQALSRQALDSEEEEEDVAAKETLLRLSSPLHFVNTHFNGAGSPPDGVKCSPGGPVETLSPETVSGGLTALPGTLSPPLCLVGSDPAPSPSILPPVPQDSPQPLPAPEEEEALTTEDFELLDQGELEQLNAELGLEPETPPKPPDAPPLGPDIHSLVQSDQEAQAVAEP

Assays:
Assay in all cases: log2 fold change, soluble protein after heating vs DMSO (PISA); higher = thermal stabilisation; K562 lysate, 10 uM; active = over 0.2 and 3.5 SD of the protein, either way, in both replicates (recomputed)
alvocidib = compound: CN1CC[C@H](c2c(O)cc(O)c3c(=O)cc(-c4ccccc4Cl)oc23)[C@H](O)C1 [alvocidib]
Summary of the method: (§1)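 The values are log-two fold changes in thermal stability compared with solvent controls and come from duplicates. They were obtained by TMTpro 16plex LC-MS/MS, with channel sums equalised, on the supernatant after 21,000xg for 90 min. That supernatant came from crude K562 extract at 1 mg/mL protein treated with 10 μM compound for 30 min, heated for 3 min across 48°C-58°C, pooled and brought to 0.5% NP-40 at 4°C.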

Tubastatin A = compound: CN1CCc2c(c3ccccc3n2Cc2ccc(C(=O)NO)cc2)C1 [Tubastatin A]
Summary of the method: as §1

[1] = compound: CNC(=O)C1=CC=CC=C1NC2=NC(=NC=C2Cl)NC3=C(C=C(C=C3)N4CCOCC4)OC
Summary of the method: as §1

defactinib = compound: CNC(=O)c1ccc(Nc2ncc(C(F)(F)F)c(NCc3nccnc3N(C)S(C)(=O)=O)n2)cc1 [defactinib]
Summary of the method: as §1

[2] = compound: CNc1nc(-c2ccc3c(N)n[nH]c3c2)cc(N2C[C@@H](C(=O)NC3CCCCC3)CC[C@H]2C)n1
Summary of the method: as §1

encorafenib = compound: COC(=O)N[C@@H](C)CNc1nccc(-c2cn(C(C)C)nc2-c2cc(Cl)cc(NS(C)(=O)=O)c2F)n1 [encorafenib]
Summary of the method: as §1

[3] = compound: COC(=O)[C@H](CCSC)NC(=O)C1=C(C=C(C=C1)NC[C@H](CS)N)C2=CC=CC=C2
Summary of the method: as §1

alisertib = compound: COc1cc(Nc2ncc3c(n2)-c2ccc(Cl)cc2C(c2c(F)cccc2OC)=NC3)ccc1C(=O)O [alisertib]
Summary of the method: as §1

[4] = compound: COc1cc2nc(-c3cc(F)ccc3O)nc(N[C@@H]3CNC[C@H]3C(C)(C)O)c2cc1OC
Summary of the method: as §1

gefitinib = compound: COc1cc2ncnc(Nc3ccc(F)c(Cl)c3)c2cc1OCCCN1CCOCC1 [gefitinib]
Summary of the method: as §1

lapatinib = compound: CS(=O)(=O)CCNCc1ccc(-c2ccc3ncnc(Nc4ccc(OCc5cccc(F)c5)c(Cl)c4)c3c2)o1 [lapatinib]
Summary of the method: as §1

pictilisib = compound: CS(=O)(=O)N1CCN(Cc2cc3nc(-c4cccc5[nH]ncc45)nc(N4CCOCC4)c3s2)CC1 [pictilisib]
Summary of the method: as §1

crizotinib = compound: C[C@@H](Oc1cc(-c2cnn(C3CCNCC3)c2)cnc1N)c1c(Cl)ccc(F)c1Cl [crizotinib]
Summary of the method: as §1

[5] = compound: C[C@H](C1=CC=C(C=C1)C(=O)NC2=C3C=CNC3=NC=C2)N
Summary of the method: as §1

duvelisib = compound: C[C@H](Nc1ncnc2nc[nH]c12)c1cc2cccc(Cl)c2c(=O)n1-c1ccccc1 [duvelisib]
Summary of the method: as §1

gandotinib = compound: Cc1cc(Nc2cc(CN3CCOCC3)c3nc(C)c(Cc4ccc(Cl)cc4F)n3n2)n[nH]1 [gandotinib]
Summary of the method: as §1

tozasertib = compound: Cc1cc(Nc2cc(N3CCN(C)CC3)nc(Sc3ccc(NC(=O)C4CC4)cc3)n2)n[nH]1 [tozasertib]
Summary of the method: as §1

doramapimod = compound: Cc1ccc(-n2nc(C(C)(C)C)cc2NC(=O)Nc2ccc(OCCN3CCOCC3)c3ccccc23)cc1 [doramapimod]
Summary of the method: as §1

bafetinib = compound: Cc1ccc(NC(=O)c2ccc(CN3CC[C@H](N(C)C)C3)c(C(F)(F)F)c2)cc1Nc1nccc(-c2cncnc2)n1 [bafetinib]
Summary of the method: as §1

[6] = compound: Cc1cccc(CC(=O)N2CCc3c2ccc(-c2cn(C)c4ncnc(N)c24)c3F)n1
Summary of the method: as §1

Measured: log2 fold change

RBM19 (UniProt Q9Y4C8)
inactive: alvocidib -0.042 | Tubastatin A 0.06 | [1] -0.038 | defactinib 0.032 | [2] 0.035 | encorafenib -0.007 | [3] 0.035 | alisertib 0.004 | [4] 0.008 | gefitinib 0.013 | lapatinib -0.106 | pictilisib -0.106 | crizotinib 0.016 | [5] -0.081 | duvelisib -0.07 | gandotinib 0.044 | tozasertib 0.093 | doramapimod -0.027 | bafetinib -0.035 | [6] 0.048

RFFL (UniProt Q8WZ73)
inactive: alvocidib -0.01 | Tubastatin A 0.159 | [1] -0.007 | defactinib 0.112 | [2] 0.097 | encorafenib -0.002 | [3] -0.103 | alisertib -0.067 | [4] 0.197 | gefitinib 0.037 | lapatinib -0.052 | pictilisib -0.088 | crizotinib -0.031 | [5] -0.038 | duvelisib 0.061 | gandotinib 0.01 | tozasertib -0.062 | doramapimod 0.021 | bafetinib 0.009 | [6] 0.104

REXO1 (UniProt Q8N1G1)
inactive: alvocidib 0.043 | Tubastatin A -0.135 | [1] 0.138 | alisertib 0.023 | gefitinib -0.143 | pictilisib 0.017 | crizotinib 0.033 | [5] -0.068 | gandotinib 0.02 | doramapimod -0.105 | bafetinib -0.428 | [6] 0.078

RETSAT (UniProt Q6NUM9)
inactive: alvocidib -0.114 | Tubastatin A 0.179 | [1] -0.071 | defactinib -0.045 | [2] 0.402 | encorafenib 0.079 | [3] 0.025 | [4] -0.059 | lapatinib 0.056 | pictilisib -0.048 | crizotinib -0.329 | [5] -0.159 | duvelisib 0.039 | gandotinib 0.167 | tozasertib -0.024 | doramapimod 0.006 | bafetinib -0.097 | [6] 0.391

RFXANK (UniProt O14593)
inactive: alvocidib 0.095 | Tubastatin A -0.103 | [1] 0.105 | defactinib 0.15 | [2] -0.033 | encorafenib 0.047 | [3] -0.01 | [4] 0.102 | lapatinib 0.154 | pictilisib 0 | crizotinib -0.022 | [5] 0.072 | duvelisib 0.03 | gandotinib -0.079 | tozasertib 0.053 | doramapimod 0.032 | bafetinib -0.11 | [6] -0.044

RBL2 (UniProt Q08999)
inactive: alvocidib 0.078 | Tubastatin A -0.104 | [2] 0.003 | encorafenib 0.045 | [3] 0.071 | alisertib 0.04 | [4] 0.076 | gefitinib 0.04 | lapatinib -0.013 | pictilisib 0.004 | crizotinib -0.018 | [5] 0.004 | duvelisib -0.082 | gandotinib -0.081 | tozasertib -0.163 | doramapimod 0.044 | bafetinib 0.064 | [6] 0.145

RGS14 (UniProt O43566)
inactive: alvocidib -0.344 | Tubastatin A 0.053 | [1] 0.005 | [2] -0.011 | encorafenib -0.229 | [3] -0.114 | alisertib -0.053 | [4] -0.033 | gefitinib -0.152 | lapatinib 0.043 | pictilisib 0.039 | crizotinib -0.012 | [5] -0.397 | duvelisib 0.039 | gandotinib 0.197 | tozasertib 0.103 | doramapimod -0.014 | bafetinib -0.283 | [6] 0.18

RGL2 (UniProt O15211)
inactive: alvocidib 0.05 | Tubastatin A 0.098 | [1] 0.034 | [2] 0.139 | alisertib -0.005 | [4] 0.065 | gefitinib 0.228 | lapatinib -0.168 | crizotinib 0.026 | [5] 0.057 | duvelisib 0.069 | gandotinib -0.108 | doramapimod -0.043 | [6] 0.169

RBM47
inactive: alvocidib -0.131 | Tubastatin A 0.206 | [1] 0.19 | defactinib -0.178 | [2] -0.112 | alisertib 0.462 | [4] 0.136 | gefitinib -0.005 | lapatinib -0.046 | [5] -0.222 | duvelisib 0.09 | gandotinib 0.112 | [6] 0.275

RBIS (UniProt Q8N0T1)
inactive: alvocidib -0.042 | Tubastatin A 0.034 | [1] 0.056 | defactinib 0.072 | [2] -0.025 | encorafenib 0.055 | [3] -0.036 | pictilisib 0.014 | crizotinib -0.04 | [5] -0.089 | duvelisib 0.005 | gandotinib 0.143 | tozasertib -0.033 | doramapimod 0.087 | bafetinib 0 | [6] 0.101

REEP3 (UniProt Q6NUK4)
inactive: alvocidib -0.006 | Tubastatin A -0.124 | [1] -0.065 | defactinib -0.029 | alisertib -0.039 | [4] 0.021 | gefitinib 0.076 | lapatinib -0.008 | pictilisib -0.034 | crizotinib 0.036 | [5] 0.06 | gandotinib -0.007 | doramapimod -0.012 | bafetinib 0.036 | [6] 0

RBFA (UniProt Q8N0V3)
inactive: alvocidib 0.122 | Tubastatin A 0.011 | [1] 0.127 | alisertib -0.003 | gefitinib -0.332 | crizotinib -0.127 | [5] -0.121 | gandotinib 0.117 | doramapimod -0.119 | [6] -0.132

RGCC (UniProt Q9H4X1)
inactive: alvocidib 0 | Tubastatin A -0.114 | [1] 0.136 | defactinib -0.08 | [5] -0.153 | gandotinib 0.111 | [6] 0.025

RBKS (UniProt Q9H477)
inactive: alvocidib -0.184 | Tubastatin A 0.359 | [2] -0.04 | [5] -0.057 | duvelisib 0.072 | gandotinib 0.012 | [6] -0.059

RHD (UniProt Q02161)
inactive: alvocidib -0.187 | Tubastatin A 0.033 | [2] 0.04 | [5] -0.187 | duvelisib -0.006 | gandotinib -0.079 | [6] -0.037

RBP5 (UniProt P82980)
inactive: alvocidib -0.27 | Tubastatin A -0.04 | [1] 0.019 | defactinib 0.021 | [2] 0.184 | encorafenib 0.173 | [3] 0.021 | alisertib -0.085 | [4] -0.044 | gefitinib -0.07 | lapatinib -0.051 | crizotinib 0.092 | [5] -0.207 | duvelisib 0.032 | gandotinib 0.136 | tozasertib -0.025 | doramapimod 0.135 | [6] -0.051

REXO5 (UniProt Q96IC2)
inactive: alvocidib 0.018 | Tubastatin A -0.012 | [1] 0.036 | defactinib 0.033 | [2] 0.023 | encorafenib 0.055 | [3] 0.103 | alisertib -0.039 | gefitinib 0.054 | pictilisib -0.012 | [5] -0.091 | duvelisib -0.014 | gandotinib -0.056 | tozasertib 0.038 | bafetinib -0.065 | [6] 0.012

Two neighbouring entries already listed:
RBKS (UniProt Q9H477)
inactive: alvocidib -0.184 | Tubastatin A 0.359 | [2] -0.04 | [5] -0.057 | duvelisib 0.072 | gandotinib 0.012 | [6] -0.059

RHD (UniProt Q02161)
inactive: alvocidib -0.187 | Tubastatin A 0.033 | [2] 0.04 | [5] -0.187 | duvelisib -0.006 | gandotinib -0.079 | [6] -0.037

Additional entries:

RBM38 (UniProt Q9H0Z9)
inactive: alvocidib 0.036 | Tubastatin A 0.071 | [1] 0.062 | defactinib -0.057 | [2] -0.055 | encorafenib 0.084 | [3] -0.049 | alisertib 0.05 | [4] -0.023 | gefitinib -0.067 | lapatinib 0.084 | crizotinib 0.101 | [5] -0.014 | duvelisib -0.073 | gandotinib -0.001 | tozasertib 0.055 | doramapimod 0.133 | [6] -0.002

RFWD3 (UniProt Q6PCD5)
inactive: alvocidib -0.057 | Tubastatin A 0.065 | [1] 0.051 | defactinib 0.082 | [2] -0.057 | encorafenib 0.1 | [3] -0.052 | alisertib 0.114 | gefitinib -0.057 | pictilisib -0.12 | crizotinib -0.066 | [5] 0.036 | duvelisib 0.041 | gandotinib 0.004 | tozasertib -0.037 | doramapimod 0.036 | bafetinib -0.04 | [6] 0.107

RGS3 (UniProt P49796)
inactive: alvocidib 0.039 | Tubastatin A 0.106 | [1] 0.001 | alisertib 0.044 | [4] 0.032 | gefitinib 0.011 | lapatinib 0.05 | pictilisib -0.043 | crizotinib 0.016 | [5] -0.132 | gandotinib 0.265 | doramapimod -0.02 | bafetinib -0.074 | [6] 0

RETREG2 (UniProt Q8NC44)
inactive: alvocidib -0.069 | Tubastatin A -0.025 | [1] 0 | defactinib -0.12 | encorafenib -0.002 | [3] -0.096 | alisertib -0.029 | [4] -0.007 | gefitinib -0.058 | lapatinib -0.051 | pictilisib -0.037 | crizotinib -0.074 | [5] -0.052 | gandotinib -0.052 | tozasertib 0.025 | doramapimod -0.005 | bafetinib -0.141 | [6] 0.122
